No constants are given. Whether binding was seen depends on the method and setting. Some entries that bind do so weakly or less than the wild type.

Protein sequences, listed by entry. Tags and fused reporters are not part of them.
UniProt Q96CV9: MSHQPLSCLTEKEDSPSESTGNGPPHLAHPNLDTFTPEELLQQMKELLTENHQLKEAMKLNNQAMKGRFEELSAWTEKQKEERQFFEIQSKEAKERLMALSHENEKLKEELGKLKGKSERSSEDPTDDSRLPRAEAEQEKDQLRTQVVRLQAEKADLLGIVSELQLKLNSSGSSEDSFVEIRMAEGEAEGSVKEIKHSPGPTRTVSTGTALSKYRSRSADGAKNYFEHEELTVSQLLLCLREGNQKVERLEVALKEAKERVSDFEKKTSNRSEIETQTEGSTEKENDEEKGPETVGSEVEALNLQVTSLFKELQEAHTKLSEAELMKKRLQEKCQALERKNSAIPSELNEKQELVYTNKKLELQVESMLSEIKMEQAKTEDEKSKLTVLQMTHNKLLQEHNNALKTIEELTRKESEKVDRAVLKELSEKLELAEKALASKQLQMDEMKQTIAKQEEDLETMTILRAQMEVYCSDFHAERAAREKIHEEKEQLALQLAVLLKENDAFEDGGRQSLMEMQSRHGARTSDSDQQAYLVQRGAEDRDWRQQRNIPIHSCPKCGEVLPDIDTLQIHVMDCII

The target in the experiment is LC3C (two-hybrid bait) (UniProt Q9BXW4). Put plainly: two-hybrid; mammalian 2-hybrid in CHO cells, bait in pM, prey in pVP16, luciferase reporter after 48 hours, normalised against a bait only control. (In general: Reporter assays use an easily measured gene product as a stand-in for the process of interest.)

Regarding “optineurin full-length wild-type (two-hybrid prey) (from UniProt Q96CV9 1-577)”, the binding entry was “binds”.

The values are drawn from article PMC4599966.
